PubChem BioAssay AID1224830 – NIAID | 2016
The deposit covers about 18,000 reagents; shown is an unselected part. About 2,900 of them (16%) count as active. 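Calls are made per well; low scores hint the gene aids the LPS response, high scores that it dampens it.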 Reagents against one gene are numbered here. Repeated entries: four replicate wells of each siRNA pool. No sequences are given here.

Assay: 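Regulators of TLR4 signalling towards TNF-alpha in macrophage-like cells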 (primary screen)
Cells: human THP-1 monocytic leukaemia cells, TNF dual-luciferase reporter clone, PMA-differentiated to macrophage-like cells
Reagents: siRNA pool against human genes, 50 nM
Time to read-out: LPS for 4 h, given about 3 days after siRNA transfection
Challenge: bacterial LPS (TLR4 ligand), 10 ng/ml
Detection: 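TNF firefly reporter luminescence divided by renilla, normalised to the plate median, then turned into a robust z-score for each replicate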
Reading the numbers: TNF reporter robust z-score: higher = stronger TNF reporter response to LPS
Hit rule: 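Each well counts as active if its z-score is over 2.8 or under -1.5; controls are left without a call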

TNF reporter robust z-score, by target gene and reagent
CPOX (coproporphyrinogen oxidase): #1 -0.68 inactive; #1 0.18 inactive; #1 0.07 inactive; #1 -0.31 inactive
COG4 (component of oligomeric golgi complex 4): #1 -0.62 inactive; #1 0.64 inactive; #1 -0.44 inactive
TIGD4 (tigger transposable element derived 4): #1 -1.4 inactive; #1 -1.17 inactive; #1 -1.31 inactive; #1 -0.95 inactive
OSCP1: #1 -0.52 inactive; #1 -0.46 inactive; #1 -0.04 inactive; #1 1.08 inactive
SPAG4 (sperm associated antigen 4): #1 -1.01 inactive; #1 -0.93 inactive; #1 -0.47 inactive; #1 -1.09 inactive
SDS (serine dehydratase): #1 -0.08 inactive; #1 0.53 inactive; #1 1.17 inactive; #1 1.59 inactive
P2RX5 (purinergic receptor P2X 5): #1 0.2 inactive; #1 1.1 inactive; #1 0.57 inactive; #1 1.37 inactive
ZCWPW1 (zinc finger CW-type and PWWP domain containing 1): #1 0.08 inactive; #1 1 inactive; #1 -0.14 inactive; #1 0.99 inactive
CFAP46 (cilia and flagella associated protein 46): #1 -1.33 inactive; #1 -1.42 inactive; #1 -1.14 inactive; #1 -0.99 inactive; #2 0.49 inactive; #2 -0.7 inactive; #2 0.01 inactive; #2 0.51 inactive
LPO (lactoperoxidase): #1 0.9 inactive; #1 0.52 inactive; #1 0.83 inactive; #1 -0.18 inactive
KRT71 (keratin 71): #1 2.16 inactive; #1 1.4 inactive; #1 1.49 inactive; #1 1.61 inactive

Next reagents:
TNF reporter robust z-score, by target gene and reagent
TPP2 (tripeptidyl peptidase 2): #1 0.02 inactive; #1 0.3 inactive; #1 -0.97 inactive; #1 -0.7 inactive
LEKR1 (leucine, glutamate and lysine rich 1): #1 -0.85 inactive; #1 -0.42 inactive; #1 -0.39 inactive; #1 0.32 inactive
ANKRD30A (ankyrin repeat domain 30A): #1 -0.31 inactive; #1 0.45 inactive; #1 0.29 inactive; #1 0.69 inactive
SULF1 (sulfatase 1): #1 0.47 inactive; #1 0.16 inactive; #1 0.18 inactive; #1 2.72 inactive
GPX3 (glutathione peroxidase 3): #1 -1.68 active; #1 -1.47 inactive; #1 -1.24 inactive; #1 -0.61 inactive
IDH3B: #1 -0.91 inactive; #1 -1 inactive; #1 -1.12 inactive; #1 -0.43 inactive
ATP6V0A2 (ATPase H+ transporting V0 subunit a2): #1 0.68 inactive; #1 5.46 active; #1 1.64 inactive; #1 2.29 inactive
